{"sequences": {"note": "Protein sequences, listed by entry. Tags and fused reporters are not part of them. Lines headed by an entry give the natural chain unless they say otherwise; changes in a name come on top.", "UniProt O95182, whole entry": "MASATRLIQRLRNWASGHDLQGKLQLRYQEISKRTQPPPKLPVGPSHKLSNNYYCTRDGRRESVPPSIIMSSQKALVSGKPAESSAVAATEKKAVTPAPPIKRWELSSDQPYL", "UniProt P28331, whole entry, looked up": "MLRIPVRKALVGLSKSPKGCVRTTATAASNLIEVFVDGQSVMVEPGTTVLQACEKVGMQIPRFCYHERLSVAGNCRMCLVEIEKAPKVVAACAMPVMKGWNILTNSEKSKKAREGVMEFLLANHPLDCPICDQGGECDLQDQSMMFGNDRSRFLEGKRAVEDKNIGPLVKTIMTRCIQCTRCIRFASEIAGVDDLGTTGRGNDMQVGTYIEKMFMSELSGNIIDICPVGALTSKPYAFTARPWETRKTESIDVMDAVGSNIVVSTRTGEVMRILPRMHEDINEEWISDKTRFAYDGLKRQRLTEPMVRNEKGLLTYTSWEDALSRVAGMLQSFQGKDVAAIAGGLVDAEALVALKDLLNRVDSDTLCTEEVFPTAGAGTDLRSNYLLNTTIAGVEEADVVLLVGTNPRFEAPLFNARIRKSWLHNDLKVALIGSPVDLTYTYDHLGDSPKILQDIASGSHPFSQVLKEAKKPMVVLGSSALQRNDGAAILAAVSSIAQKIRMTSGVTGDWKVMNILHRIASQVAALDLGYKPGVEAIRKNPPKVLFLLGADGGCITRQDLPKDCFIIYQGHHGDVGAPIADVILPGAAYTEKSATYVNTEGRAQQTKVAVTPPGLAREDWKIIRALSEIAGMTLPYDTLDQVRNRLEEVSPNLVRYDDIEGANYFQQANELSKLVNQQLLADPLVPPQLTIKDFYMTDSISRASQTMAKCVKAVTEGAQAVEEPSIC", "UniProt Q9HC98": "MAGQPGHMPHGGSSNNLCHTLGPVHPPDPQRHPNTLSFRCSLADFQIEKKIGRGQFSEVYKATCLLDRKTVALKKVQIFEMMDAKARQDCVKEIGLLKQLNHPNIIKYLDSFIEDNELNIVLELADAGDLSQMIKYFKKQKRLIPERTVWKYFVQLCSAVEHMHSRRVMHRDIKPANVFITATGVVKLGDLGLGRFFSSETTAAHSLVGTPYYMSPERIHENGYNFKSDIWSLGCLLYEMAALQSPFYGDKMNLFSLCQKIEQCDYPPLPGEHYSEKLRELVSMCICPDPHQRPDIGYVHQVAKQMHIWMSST", "UniProt O75376, whole entry, looked up": "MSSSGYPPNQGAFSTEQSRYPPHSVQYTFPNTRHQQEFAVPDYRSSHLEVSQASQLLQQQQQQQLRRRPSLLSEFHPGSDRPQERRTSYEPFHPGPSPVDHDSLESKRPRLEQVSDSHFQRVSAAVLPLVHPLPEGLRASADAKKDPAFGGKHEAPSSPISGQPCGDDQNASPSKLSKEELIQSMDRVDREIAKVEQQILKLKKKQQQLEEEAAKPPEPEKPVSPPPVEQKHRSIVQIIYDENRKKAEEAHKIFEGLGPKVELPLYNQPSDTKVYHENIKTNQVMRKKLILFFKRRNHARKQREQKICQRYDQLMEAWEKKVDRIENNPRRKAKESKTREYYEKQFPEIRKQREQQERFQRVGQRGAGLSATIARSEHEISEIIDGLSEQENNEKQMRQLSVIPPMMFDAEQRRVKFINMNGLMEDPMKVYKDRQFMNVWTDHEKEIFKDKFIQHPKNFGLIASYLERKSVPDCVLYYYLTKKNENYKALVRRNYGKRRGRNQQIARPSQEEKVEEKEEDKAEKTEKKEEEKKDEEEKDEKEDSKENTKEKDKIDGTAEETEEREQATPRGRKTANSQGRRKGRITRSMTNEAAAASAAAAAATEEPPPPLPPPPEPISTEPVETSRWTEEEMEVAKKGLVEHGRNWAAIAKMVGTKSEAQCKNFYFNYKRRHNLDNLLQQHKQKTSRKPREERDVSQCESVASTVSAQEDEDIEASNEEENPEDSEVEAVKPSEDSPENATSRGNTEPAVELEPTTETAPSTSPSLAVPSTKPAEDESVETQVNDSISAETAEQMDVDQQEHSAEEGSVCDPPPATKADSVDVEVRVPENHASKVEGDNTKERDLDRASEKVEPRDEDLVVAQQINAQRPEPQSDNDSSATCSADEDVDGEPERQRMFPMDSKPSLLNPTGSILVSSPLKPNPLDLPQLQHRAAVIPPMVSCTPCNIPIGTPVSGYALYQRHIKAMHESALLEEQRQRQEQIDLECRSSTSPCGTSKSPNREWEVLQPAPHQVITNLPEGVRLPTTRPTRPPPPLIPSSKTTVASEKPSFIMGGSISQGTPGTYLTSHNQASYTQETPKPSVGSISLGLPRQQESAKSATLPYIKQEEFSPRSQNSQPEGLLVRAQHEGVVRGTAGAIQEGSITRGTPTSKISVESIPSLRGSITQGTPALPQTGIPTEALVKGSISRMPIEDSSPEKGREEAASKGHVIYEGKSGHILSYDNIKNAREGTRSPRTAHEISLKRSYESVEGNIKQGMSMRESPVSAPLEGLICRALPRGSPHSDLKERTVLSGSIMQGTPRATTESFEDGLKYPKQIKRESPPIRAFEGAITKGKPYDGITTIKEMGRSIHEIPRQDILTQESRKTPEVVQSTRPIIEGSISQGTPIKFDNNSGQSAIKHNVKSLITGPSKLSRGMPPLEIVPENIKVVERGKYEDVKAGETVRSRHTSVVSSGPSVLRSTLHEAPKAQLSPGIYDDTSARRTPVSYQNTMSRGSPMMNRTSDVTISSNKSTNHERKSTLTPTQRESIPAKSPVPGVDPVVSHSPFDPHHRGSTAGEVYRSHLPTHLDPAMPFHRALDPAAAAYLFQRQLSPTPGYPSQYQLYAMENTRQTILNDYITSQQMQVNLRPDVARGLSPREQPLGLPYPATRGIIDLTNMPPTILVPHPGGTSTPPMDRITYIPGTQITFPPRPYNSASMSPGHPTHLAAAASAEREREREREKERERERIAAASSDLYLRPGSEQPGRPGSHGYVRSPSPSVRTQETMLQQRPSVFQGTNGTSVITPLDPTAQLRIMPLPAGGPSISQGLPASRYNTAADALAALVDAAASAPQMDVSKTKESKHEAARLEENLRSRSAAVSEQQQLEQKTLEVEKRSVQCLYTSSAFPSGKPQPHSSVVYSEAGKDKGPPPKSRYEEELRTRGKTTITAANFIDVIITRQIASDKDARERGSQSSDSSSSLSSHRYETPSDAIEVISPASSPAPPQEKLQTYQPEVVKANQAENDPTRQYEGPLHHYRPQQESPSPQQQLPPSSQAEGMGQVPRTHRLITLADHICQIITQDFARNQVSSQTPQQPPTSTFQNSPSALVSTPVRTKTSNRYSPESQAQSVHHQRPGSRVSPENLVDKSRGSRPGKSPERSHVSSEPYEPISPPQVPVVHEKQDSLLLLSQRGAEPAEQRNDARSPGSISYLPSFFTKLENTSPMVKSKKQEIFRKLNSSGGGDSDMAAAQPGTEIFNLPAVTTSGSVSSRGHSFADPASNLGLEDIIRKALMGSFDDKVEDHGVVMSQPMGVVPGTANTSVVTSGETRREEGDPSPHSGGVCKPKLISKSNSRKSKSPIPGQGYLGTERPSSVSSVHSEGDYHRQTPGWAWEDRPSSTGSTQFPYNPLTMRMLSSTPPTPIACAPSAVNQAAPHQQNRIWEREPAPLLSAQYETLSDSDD", "UniProt Q6KC79": "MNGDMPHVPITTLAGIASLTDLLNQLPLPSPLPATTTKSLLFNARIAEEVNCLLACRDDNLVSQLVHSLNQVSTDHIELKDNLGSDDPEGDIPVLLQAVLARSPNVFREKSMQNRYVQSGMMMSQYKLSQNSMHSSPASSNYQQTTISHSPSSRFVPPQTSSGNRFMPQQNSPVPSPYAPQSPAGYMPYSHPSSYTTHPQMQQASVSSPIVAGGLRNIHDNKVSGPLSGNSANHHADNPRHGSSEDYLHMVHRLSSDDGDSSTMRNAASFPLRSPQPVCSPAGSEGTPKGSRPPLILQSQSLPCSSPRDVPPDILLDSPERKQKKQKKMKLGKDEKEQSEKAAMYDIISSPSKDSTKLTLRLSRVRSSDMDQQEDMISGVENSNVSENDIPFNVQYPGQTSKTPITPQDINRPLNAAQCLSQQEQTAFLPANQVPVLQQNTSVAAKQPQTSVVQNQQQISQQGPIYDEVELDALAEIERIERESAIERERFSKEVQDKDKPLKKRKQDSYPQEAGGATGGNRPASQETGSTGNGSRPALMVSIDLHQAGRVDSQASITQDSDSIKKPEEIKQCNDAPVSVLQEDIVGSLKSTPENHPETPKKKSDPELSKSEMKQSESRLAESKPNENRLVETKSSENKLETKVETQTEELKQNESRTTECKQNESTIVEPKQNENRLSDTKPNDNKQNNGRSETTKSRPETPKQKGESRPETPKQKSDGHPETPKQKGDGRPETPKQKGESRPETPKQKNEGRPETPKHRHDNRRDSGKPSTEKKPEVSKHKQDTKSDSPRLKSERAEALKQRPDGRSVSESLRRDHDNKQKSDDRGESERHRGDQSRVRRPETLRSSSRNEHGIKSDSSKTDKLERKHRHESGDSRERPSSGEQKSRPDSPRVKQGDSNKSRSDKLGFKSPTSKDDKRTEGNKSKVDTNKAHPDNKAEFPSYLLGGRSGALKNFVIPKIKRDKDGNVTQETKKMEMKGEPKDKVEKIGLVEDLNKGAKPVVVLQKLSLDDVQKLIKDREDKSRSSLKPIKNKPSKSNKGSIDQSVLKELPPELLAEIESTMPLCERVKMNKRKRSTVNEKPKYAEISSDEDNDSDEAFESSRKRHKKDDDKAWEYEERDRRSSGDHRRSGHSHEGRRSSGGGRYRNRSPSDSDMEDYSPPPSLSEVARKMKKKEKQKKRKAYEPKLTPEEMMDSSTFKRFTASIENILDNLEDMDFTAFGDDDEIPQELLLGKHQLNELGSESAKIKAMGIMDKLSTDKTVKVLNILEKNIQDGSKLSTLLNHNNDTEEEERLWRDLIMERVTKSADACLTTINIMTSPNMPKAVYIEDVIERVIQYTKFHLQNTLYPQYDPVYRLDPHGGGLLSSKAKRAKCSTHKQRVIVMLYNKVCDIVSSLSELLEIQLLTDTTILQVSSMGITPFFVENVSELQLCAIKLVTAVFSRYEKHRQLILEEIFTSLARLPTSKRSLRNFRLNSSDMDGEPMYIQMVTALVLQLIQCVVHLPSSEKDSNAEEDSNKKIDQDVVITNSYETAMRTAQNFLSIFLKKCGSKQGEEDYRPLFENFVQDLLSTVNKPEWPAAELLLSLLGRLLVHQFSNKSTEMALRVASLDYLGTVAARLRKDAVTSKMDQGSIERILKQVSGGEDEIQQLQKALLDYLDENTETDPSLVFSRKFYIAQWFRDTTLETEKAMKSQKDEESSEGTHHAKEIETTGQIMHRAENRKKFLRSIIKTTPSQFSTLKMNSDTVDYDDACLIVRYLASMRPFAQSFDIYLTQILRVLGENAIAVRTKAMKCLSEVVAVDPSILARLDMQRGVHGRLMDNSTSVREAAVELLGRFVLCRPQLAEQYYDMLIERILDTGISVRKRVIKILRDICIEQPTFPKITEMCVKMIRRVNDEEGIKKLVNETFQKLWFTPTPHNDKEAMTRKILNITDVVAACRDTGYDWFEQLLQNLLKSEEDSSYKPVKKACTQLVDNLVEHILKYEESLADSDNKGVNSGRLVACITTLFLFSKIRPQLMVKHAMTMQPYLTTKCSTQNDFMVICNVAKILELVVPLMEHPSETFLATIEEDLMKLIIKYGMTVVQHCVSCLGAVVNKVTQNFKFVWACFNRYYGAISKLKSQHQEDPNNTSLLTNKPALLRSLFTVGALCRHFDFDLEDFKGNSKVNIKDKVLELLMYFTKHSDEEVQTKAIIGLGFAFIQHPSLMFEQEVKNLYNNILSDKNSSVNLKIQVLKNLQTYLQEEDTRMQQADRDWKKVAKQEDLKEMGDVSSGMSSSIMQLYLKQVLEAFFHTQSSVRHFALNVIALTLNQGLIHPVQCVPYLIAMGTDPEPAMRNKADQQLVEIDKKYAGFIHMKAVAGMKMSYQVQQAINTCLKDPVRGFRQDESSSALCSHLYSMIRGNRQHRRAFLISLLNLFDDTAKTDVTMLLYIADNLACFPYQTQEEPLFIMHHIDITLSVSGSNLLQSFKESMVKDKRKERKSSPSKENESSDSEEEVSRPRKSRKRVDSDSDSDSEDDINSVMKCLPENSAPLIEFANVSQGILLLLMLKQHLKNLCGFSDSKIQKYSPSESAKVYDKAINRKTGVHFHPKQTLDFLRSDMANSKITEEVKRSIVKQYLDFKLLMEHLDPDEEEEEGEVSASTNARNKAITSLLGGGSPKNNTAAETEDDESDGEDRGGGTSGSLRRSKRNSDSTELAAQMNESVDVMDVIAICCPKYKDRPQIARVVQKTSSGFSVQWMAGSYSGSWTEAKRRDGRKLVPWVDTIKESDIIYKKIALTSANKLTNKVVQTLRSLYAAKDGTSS", "UniProt Q16718, whole entry, looked up": "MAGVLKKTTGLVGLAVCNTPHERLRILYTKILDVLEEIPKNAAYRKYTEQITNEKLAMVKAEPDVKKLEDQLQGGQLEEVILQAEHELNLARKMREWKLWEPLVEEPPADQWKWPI"}, "source": "the supplement of paper PMC12067093", "about": "“Discovery and optimisation of a covalent ligand for TRIM25 and its application to targeted protein ubiquitination” (Chemical Science, 2025)", "note": "The list shows a part of the results.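 Further: competitive chemoproteomic profiling in live THP-1 cells with an iodoacetamide desthiobiotin (IA-DTB) probe, comparing probe-labelled peptide intensities in compound-treated cells against DMSO-treated controls.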"}
{"compound": "CC1Cc2ccccc2N1C(=O)C1CCCN(C1)C(=O)CCl (mixture of isomers) [TRIM25 ligand 11 (diastereomer mixture)]", "test": "probe-labelled cysteine peptide fold change vs DMSO (competition) (log2 fold change); higher = less target engagement (more negative = stronger competition)", "conditions": "10 µM; THP-1; incubation time: 4 h"}
{"target": "NFKBIE_O00221_438_MLNGCTPLHLAAGR (UniProt O00221)", "probe-labelled cysteine peptide fold change": -0.159}
{"target": "NEU1_Q99519_218_LIVCGHGTLER (UniProt Q99519)", "probe-labelled cysteine peptide fold change": -0.0476}
{"target": "NDUFB10_O96000_119_EGQNYQQNCIK (UniProt O96000)", "probe-labelled cysteine peptide fold change": -0.0835}
{"target": "NDUFA10_O95299_253_CEVLQYSAR (UniProt O95299)", "probe-labelled cysteine peptide fold change": -0.0463}
{"target": "NCOA5_Q9HCD5_266_SCTVNIMFGTPQEHR (UniProt Q9HCD5)", "probe-labelled cysteine peptide fold change": 0.209}
{"target": "NFKBIA_P25963_167_GNTPLHLACEQGCLASVGVLTQSCTTPHLHSILK (UniProt P25963)", "probe-labelled cysteine peptide fold change": -0.0897}
{"target": "NDUFAF3_Q9BU61_150_GIAVEVQDTPNACATFNFLCHEGR (UniProt Q9BU61)", "probe-labelled cysteine peptide fold change": -0.0181}
{"target": "NEDD4_P46934-4_4_ATCAVEVFGLLEDEENSR (UniProt P46934)", "probe-labelled cysteine peptide fold change": -0.669}
{"target": "NEK7_Q8TDX7_146_YFVQLCSALEHMHSR (UniProt Q8TDX7)", "probe-labelled cysteine peptide fold change": -0.148}
{"target": "NDUFA7_O95182_55_LSNNYYCTR (UniProt O95182)", "probe-labelled cysteine peptide fold change": -0.087}
{"target": "NCOR2_Q9Y618_466_TVAECVLYYYLTK (UniProt Q9Y618)", "probe-labelled cysteine peptide fold change": -0.0974}
{"target": "NDUFS1_P28331_367_VDSDTLCTEEVFPTAGAGTDLR (UniProt P28331)", "probe-labelled cysteine peptide fold change": -0.0794}
{"target": "NFX1_Q12986_615_TCMDPVPSCGK (UniProt Q12986)", "probe-labelled cysteine peptide fold change": -0.242}
{"target": "NDRG1_Q92597_289_MADCGGLPQISQPAK (UniProt Q92597)", "probe-labelled cysteine peptide fold change": -0.006}
{"target": "NEK1_Q96PY6_276_FLSPQLIAEEFCLK (UniProt Q96PY6)", "probe-labelled cysteine peptide fold change": 0.0381}
{"target": "NEK9_Q8TD19_657_VSCGDEFTIAATDDNHIFAWGNGGNGR (UniProt Q8TD19)", "probe-labelled cysteine peptide fold change": 0.0815}
{"target": "NFKB2_Q00653_432_TPQCEPQAPEMLQR (UniProt Q00653)", "probe-labelled cysteine peptide fold change": -0.124}
{"target": "NEK6_Q9HC98_157_YFVQLCSAVEHMHSR (UniProt Q9HC98)", "probe-labelled cysteine peptide fold change": 0.0117}
{"target": "NFATC3_Q12968_6_TTANCGAHDELDFK (UniProt Q12968)", "probe-labelled cysteine peptide fold change": -0.143}
{"target": "NDUFS1_P28331_727_AVTEGAQAVEEPSIC (UniProt P28331)", "probe-labelled cysteine peptide fold change": 0.0055}
{"target": "NEMF_O60524_575_YLTPGDIYVHADLHGATSCVIK (UniProt O60524)", "probe-labelled cysteine peptide fold change": 0.0554}
{"target": "NDC1_Q9BTX1_9_ATAVSRPCAGR (UniProt Q9BTX1)", "probe-labelled cysteine peptide fold change": 0.00914}
{"target": "NIPSNAP2_O75323_93_ICQEVLPK (UniProt O75323)", "probe-labelled cysteine peptide fold change": -0.271}
{"target": "NCS1_P62166_38_DCPSGQLDAAGFQK (UniProt P62166)", "probe-labelled cysteine peptide fold change": 0.121}
{"target": "NCOR1_O75376_474_SVPDCVLYYYLTK (UniProt O75376)", "probe-labelled cysteine peptide fold change": -0.036}
{"target": "NIPBL_Q6KC79_573_QCNDAPVSVLQEDIVGSLK (UniProt Q6KC79)", "probe-labelled cysteine peptide fold change": -0.195}
{"target": "NGLY1_Q96IV0_283+286_EVEDHYCDACQFSNRFPR (UniProt Q96IV0)", "probe-labelled cysteine peptide fold change": -0.0665}
{"target": "NDRG3_Q9UGV2_30_NFQDFDCQEHDIETTHGVVHVTIR (UniProt Q9UGV2)", "probe-labelled cysteine peptide fold change": 0.0929}
{"target": "NCOR1_O75376_2322_REEGDPSPHSGGVCKPK (UniProt O75376)", "probe-labelled cysteine peptide fold change": -0.0371}
{"target": "NDUFB7_P17568_80_DSFPNFLACK (UniProt P17568)", "probe-labelled cysteine peptide fold change": -0.0442}
{"target": "NFX1_Q12986_951_LECDEECSALER (UniProt Q12986)", "probe-labelled cysteine peptide fold change": -0.212}
{"target": "NIT2_Q9NQR4_153_VGLGICYDMR (UniProt Q9NQR4)", "probe-labelled cysteine peptide fold change": -0.261}
{"target": "NELFCD_Q8IXH7_169_LAEAHPDCLMLNFTVK (UniProt Q8IXH7)", "probe-labelled cysteine peptide fold change": 0.0937}
{"target": "NCK2_O43639_343_VQLVDNVYCIGQR (UniProt O43639)", "probe-labelled cysteine peptide fold change": 0.0813}
{"target": "NFRKB_Q6P4R8_17_MDSLDHMLTDPLELGPCGDGHGTR (UniProt Q6P4R8)", "probe-labelled cysteine peptide fold change": -0.196}
{"target": "NEK6_Q9HC98_258_MNLFSLCQK (UniProt Q9HC98)", "probe-labelled cysteine peptide fold change": 0.202}
{"target": "NFIX_Q14938_6_MYSPYCLTQDEFHPFIEALLPHVR (UniProt Q14938)", "probe-labelled cysteine peptide fold change": 0.072}
{"target": "NIPBL_Q6KC79_1971_ACTQLVDNLVEHILK (UniProt Q6KC79)", "probe-labelled cysteine peptide fold change": -0.0363}
{"target": "NCOR2_Q9Y618_1503_ACYEESLK (UniProt Q9Y618)", "probe-labelled cysteine peptide fold change": -0.00579}
{"target": "NDUFA5_Q16718_17_KTTGLVGLAVCNTPHER (UniProt Q16718)", "probe-labelled cysteine peptide fold change": -0.288}
